# Experimental data: patent publication US7666981
# By UniProt entry, the sequences of proteins in these tests, tags left out. Residues count along the entry.
# UniProt Q16651, residues 33-322: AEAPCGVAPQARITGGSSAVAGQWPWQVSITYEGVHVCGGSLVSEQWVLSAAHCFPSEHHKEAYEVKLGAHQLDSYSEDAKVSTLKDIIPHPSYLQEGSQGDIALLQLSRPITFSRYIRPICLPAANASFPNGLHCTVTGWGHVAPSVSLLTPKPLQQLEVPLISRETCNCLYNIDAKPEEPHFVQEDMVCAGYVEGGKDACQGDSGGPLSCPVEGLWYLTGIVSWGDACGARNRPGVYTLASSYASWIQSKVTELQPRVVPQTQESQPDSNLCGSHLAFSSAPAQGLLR
# No constants are given. Whether binding was seen depends on the method and setting. Some results given as binding are weak or reduced against the parent protein; the word gives no strength. For part of these data: Sequences can lack the tags named with a protein.
# B1: mouse prostasin-binding protein (mPBP) purified from mouse seminal vesicle fluid (protein, UniProt Q07235 20-397, looked up)
# chain: SQFNSLSLEELGSNTGIQVFNQIIKSRPHENVVVSPHGIASILGMLQLGADGKTKKQLSTVMRYNVNGVGKVLKKINKAIVSKKNKDIVTVANAVFLRNGFKMEVPFAVRNKDVFQCEVQNVNFQDPASASESINFWVKNETRGMIDNLLSPNLIDGALTRLVLVNAVYFKGLWKSRFQPESTKKRTFVAGDGKSYQVPMLAQLSVFRSGSTRTPNGLWYNFIELPYHGESISMLIALPTESSTPLSAIIPHITTKTIDSWMNTMVPKRMQLVLPKFTAVAQTDLKEPLKALGITEMFEPSKANFTKITRSESLHVSHILQKAKIEVSEDGTKASAATTAILIARSSPPWFIVDRPFLFSIRHNPTGAILFLGQVNKP
# B2: GST-mPN-1 (glutathione-S-transferase fused to the N-terminus of mature mouse protease nexin-1) (protein, UniProt Q07235 20-397, looked up, not shown: a dimerising Fc or GST)
# chain: B1 chain
# B3: GST-hPN-1 (glutathione-S-transferase fused to the N-terminus of mature human protease nexin-1) (protein, UniProt P07093 20-398, looked up, not shown: a dimerising Fc or GST)
# chain: SHFNPLSLEELGSNTGIQVFNQIVKSRPHDNIVISPHGIASVLGMLQLGADGRTKKQLAMVMRYGVNGVGKILKKINKAIVSKKNKDIVTVANAVFVKNASEIEVPFVTRNKDVFQCEVRNVNFEDPASACDSINAWVKNETRDMIDNLLSPDLIDGVLTRLVLVNAVYFKGLWKSRFQPENTKKRTFVAADGKSYQVPMLAQLSVFRCGSTSAPNDLWYNFIELPYHGESISMLIALPTESSTPLSAIIPHISTKTIDSWMSIMVPKRVQVILPKFTAVAQTDLKEPLKVLGITDMFDSSKANFAKITTGSENLHVSHILQKAKIEVSEDGTKASAATTAILIARSSPPWFIVDRPFLFFIRHNPTGAVLFMGQINKP
# Key:
# [1] = biological target: purified recombinant human prostasin (human) (UniProt Q16651); test: prostasin-binding assay, western blot (FIG. 4C legend)
# [2] = biological target: purified recombinant human prostasin (human) (UniProt Q16651); test: prostasin-binding assay, SDS-PAGE, western blot (FIG. 4A)
# [3] = biological target: purified recombinant human prostasin (human) (UniProt Q16651); test: complex formation at different pH, western blot (FIG. 6A); complex increased with higher pH
# [4] = biological target: purified recombinant human prostasin (human) (UniProt Q16651); test: prostasin-binding assay, 37 degrees C, SDS-PAGE, western blot with mPBP antibody and prostasin antibody
# [5] = biological target: purified recombinant human prostasin (human) (UniProt Q16651); test: incubation with recombinant prostasin 37 degrees C 60 min, immunoblot (FIG. 8)
Binder,binding [1],binding [2],binding [3],binding [4],binding [5]
B1,binds,binds,binds,binds,
B2,,,,,binds
B3,,,,,binds
